Source: paper doi:10.1101/2020.03.13.991125
No constants are given. Whether binding was seen depends on the method and setting. In cells and extracts the contact can be indirect. Some binding calls cover weakened binding; strength is not graded here.

Chains of the proteins cited; added tags and fusions are not shown.
UniProt Q3SXY8: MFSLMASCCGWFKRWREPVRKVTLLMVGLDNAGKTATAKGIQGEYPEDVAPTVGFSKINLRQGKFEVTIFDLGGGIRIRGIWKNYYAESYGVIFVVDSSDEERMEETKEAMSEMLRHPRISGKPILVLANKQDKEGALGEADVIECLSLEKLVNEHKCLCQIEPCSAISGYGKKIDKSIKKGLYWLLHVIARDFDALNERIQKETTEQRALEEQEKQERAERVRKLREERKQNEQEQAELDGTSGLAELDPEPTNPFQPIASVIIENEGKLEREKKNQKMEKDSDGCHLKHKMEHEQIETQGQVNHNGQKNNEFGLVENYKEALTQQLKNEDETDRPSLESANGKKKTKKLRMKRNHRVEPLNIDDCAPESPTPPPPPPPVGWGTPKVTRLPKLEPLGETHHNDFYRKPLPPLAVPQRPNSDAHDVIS

Biological target: inosine monophosphate dehydrogenase 2 (IMPDH2) (human (endogenous in PDX GBM cells and breast cancer cells)) (UniProt P12268)
Experiment: co-IP

binding: binds
Substance: ADP-ribosylation factor family small GTPase ARL13B (from UniProt Q3SXY8 1-428)
